{"source": "patent US20140287460A1", "about": "“PRODUCTION OF R[…] IN INSECT CELLS USING A B[…]” (GBIOTECH SARL, priority 2011, published 2014)", "format_in_all_cases": "cell-based", "key": {"[1]": {"test_system": "bMON14272-pE4 infected SF21 cells", "assay": "Baculovirus virion suppression test (Example 4)", "settings": "presence vs absence of 5 μg/ml tetracycline, M.O.I 1.0, 72 hours, anticipated"}, "[2]": {"test_system": "modified-bMON14272-pE3 infected SF21 cells", "assay": "Baculovirus virion suppression test (Example 3)", "settings": "presence vs absence of 5 μg/ml tetracycline, M.O.I 1.0, 72 hours, anticipated"}, "[3]": {"test_system": "modified-bMON14272-pFastbac Dual infected SF21 cells", "assay": "Baculovirus virion suppression test with tetracycline, modified negative control virus (Examples 3 and 5)", "settings": "addition of 5 μg/ml tetracycline, 72 hours, anticipated"}, "[4]": {"test_system": "modified-bMON14272-pE5 infected SF21 cells", "assay": "Baculovirus virion suppression test (Example 5)", "settings": "presence vs absence of 5 μg/ml tetracycline, M.O.I 1.0, 72 hours, anticipated"}, "[5]": {"test_system": "bMON14272-pE1 infected SF21 cells", "assay": "Baculovirus virion suppression test, plaque / end point dilution assay and PCR (Example 1)", "settings": "presence vs absence of 5 μg/ml tetracycline, M.O.I 1.0, 72 hours, anticipated"}}, "note": "At least one structure is not confirmed: it was looked up by name or label, or the drawing left a doubt.", "data": [{"molecule": "CN(C)[C@@H]1C(O)=C(C(N)=O)C(=O)[C@@]2(O)C(O)=C3C(=O)c4c(O)cccc4[C@@](C)(O)[C@H]3C[C@@H]12", "note": "[tetracycline]", "values": [{"measurement": "levels of baculovirus virion production", "setting": "[1]", "result": "significantly reduce"}, {"measurement": "levels of baculovirus virion production", "setting": "[2]", "result": "significantly reduce"}, {"measurement": "effect on budded virus / baculovirus virion production", "setting": "[3]", "result": "little or no effect"}, {"measurement": "levels of budded virus production", "setting": "[4]", "result": "significantly reduce"}, {"measurement": "levels of baculovirus virion production", "setting": "[5]", "result": "significantly reduce"}]}]}
